Reference: PMC4870573

Molecular target: β-Trcp, Flag-tagged (Trcp-Flag expression vector)
Assay: co-IP; HEK293 cells transfected with the indicated plasmids, 48 h, with or without MG132 for 6-8 h before harvest; lysis in 50 mM Tris-HCl pH 7.4, 150 mM NaCl, 5 mM EDTA, 1% Triton X-100; Flag-M2 beads, 4 °C, 4 h; Western blot with antibodies against the tags

B1: mouse Elongator protein 3, N-terminal Myc (pCS2+-N-Myc) (enzyme, UniProt Q9CZX0-2 1-566)
chain: MRQKRKGAKYVGQGRKGGSGFSEITGDLSPAELMMLTIGDVIKQLVEAHEQGKDVDLNKMKTKTAAKYGLASQPRLVDIIAAVPPHYRKILIPKLKAKPVRTASGIAVVAVMCKPHRCPHISFTGNICIYCPGGPDSDFEYSTQSYTGYEPTSMRAIRARYDPFLQTRHRIEQLKQLGHSVDKVEFIVMGGTFMALPEEYRDYFIRSLHDALSGHTSNNIHEAIKYSERSFTKCVGITIETRPDYCMKRHLSDMLTYGCTRLEIGVQSVYEDVARDTNRGHTVKAACESFHLAKDSGFKVVTHMMPDLPNVGLERDIEQFIEFFENPAFRPDGLKLYPTLVIRGTGLYELWKSGRYRSYSPSDLIELVARILALVPPWTRVYRVQRDIPMPLVSSGVEHGNLRELAFARMKDLGIQCRDVRTREVGIQEIHHRVRPYQVELVRRDYVANGGWETFLSYEDPDQDILIGLLRLRKCSEETFRFELGGGVSIVRELHVYGSVVPVSSRDPTKFQHQGFGMLLMEEAERIAREEHGSGKMAVISGVGTRNYYRKIGYRLQGPYMVKMLK
How did the binding turn out when B1 was run?
Its binding is “binds”.

No constants are given. Whether binding was seen depends on the method and setting. In cells and extracts the contact can be indirect. Binding can be weak; no strength is given. Sequences can lack the tags named with a protein.
